US20060147922A1, “Novel diagnostic and therapeutic methods and reagents therefor” (priority 2002, published 2006)
Results are given in words; binding and its absence hold for the method and conditions named. In cells and extracts the contact can be indirect. Some results given as binding are weak or reduced against the parent protein; the word gives no strength. For some of these results: Tags and fused reporters may be left off the sequences shown.

Sequences of proteins named here, by UniProt entry; tags and fusion partners are left off. A change or cut given only in a name is not applied to a line headed by its entry.
UniProt P52294: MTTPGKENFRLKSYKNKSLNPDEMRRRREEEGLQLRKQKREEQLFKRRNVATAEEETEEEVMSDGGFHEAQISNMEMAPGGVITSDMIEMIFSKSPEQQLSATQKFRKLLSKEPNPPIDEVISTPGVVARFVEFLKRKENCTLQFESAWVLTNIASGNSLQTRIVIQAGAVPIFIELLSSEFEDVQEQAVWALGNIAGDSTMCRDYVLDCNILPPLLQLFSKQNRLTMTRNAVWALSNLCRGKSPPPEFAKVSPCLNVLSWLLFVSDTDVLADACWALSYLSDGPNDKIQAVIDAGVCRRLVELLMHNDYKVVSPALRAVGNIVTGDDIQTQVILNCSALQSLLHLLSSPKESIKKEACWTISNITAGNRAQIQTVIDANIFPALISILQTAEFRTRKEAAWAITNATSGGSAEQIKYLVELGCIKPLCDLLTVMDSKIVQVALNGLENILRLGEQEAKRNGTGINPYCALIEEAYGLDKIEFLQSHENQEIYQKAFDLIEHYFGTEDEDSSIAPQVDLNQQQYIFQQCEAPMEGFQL
UniProt P06401: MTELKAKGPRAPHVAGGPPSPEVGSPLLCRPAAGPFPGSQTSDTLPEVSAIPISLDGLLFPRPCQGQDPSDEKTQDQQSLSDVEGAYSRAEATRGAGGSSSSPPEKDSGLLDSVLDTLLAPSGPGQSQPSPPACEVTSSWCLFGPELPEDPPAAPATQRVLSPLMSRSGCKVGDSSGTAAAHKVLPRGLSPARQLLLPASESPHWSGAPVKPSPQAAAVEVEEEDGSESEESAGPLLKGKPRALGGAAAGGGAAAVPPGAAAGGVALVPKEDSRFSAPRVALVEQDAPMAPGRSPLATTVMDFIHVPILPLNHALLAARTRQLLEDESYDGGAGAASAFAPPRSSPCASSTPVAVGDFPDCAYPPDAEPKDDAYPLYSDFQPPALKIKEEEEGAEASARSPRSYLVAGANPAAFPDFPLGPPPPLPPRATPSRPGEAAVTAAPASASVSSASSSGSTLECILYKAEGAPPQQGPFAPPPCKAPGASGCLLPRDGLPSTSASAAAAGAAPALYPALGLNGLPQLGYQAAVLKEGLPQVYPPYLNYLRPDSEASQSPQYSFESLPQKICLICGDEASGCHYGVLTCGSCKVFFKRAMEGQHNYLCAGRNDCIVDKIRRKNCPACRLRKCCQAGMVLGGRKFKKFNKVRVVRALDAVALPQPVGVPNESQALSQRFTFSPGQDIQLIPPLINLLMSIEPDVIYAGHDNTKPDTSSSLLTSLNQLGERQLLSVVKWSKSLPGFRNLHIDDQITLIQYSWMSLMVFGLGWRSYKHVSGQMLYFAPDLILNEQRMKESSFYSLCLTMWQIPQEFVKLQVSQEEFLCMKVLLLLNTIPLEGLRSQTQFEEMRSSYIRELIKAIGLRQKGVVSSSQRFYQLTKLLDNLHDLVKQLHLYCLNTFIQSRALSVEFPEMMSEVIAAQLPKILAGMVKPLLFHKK
UniProt O96017: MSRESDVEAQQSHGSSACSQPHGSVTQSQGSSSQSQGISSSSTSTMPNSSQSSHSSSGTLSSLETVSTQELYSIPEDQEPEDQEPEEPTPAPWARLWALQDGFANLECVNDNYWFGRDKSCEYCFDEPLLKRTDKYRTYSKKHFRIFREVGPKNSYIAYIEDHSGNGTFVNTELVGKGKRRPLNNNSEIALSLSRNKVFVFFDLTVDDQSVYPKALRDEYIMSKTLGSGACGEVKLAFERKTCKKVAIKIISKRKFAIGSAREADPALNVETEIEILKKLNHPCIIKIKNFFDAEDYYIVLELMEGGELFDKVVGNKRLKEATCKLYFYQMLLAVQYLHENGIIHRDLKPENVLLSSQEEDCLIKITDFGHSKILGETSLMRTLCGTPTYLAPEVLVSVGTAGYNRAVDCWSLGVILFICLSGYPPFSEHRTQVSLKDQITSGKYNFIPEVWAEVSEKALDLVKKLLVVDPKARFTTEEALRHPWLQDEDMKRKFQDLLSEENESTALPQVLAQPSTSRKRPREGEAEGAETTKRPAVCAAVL
UniProt Q15788: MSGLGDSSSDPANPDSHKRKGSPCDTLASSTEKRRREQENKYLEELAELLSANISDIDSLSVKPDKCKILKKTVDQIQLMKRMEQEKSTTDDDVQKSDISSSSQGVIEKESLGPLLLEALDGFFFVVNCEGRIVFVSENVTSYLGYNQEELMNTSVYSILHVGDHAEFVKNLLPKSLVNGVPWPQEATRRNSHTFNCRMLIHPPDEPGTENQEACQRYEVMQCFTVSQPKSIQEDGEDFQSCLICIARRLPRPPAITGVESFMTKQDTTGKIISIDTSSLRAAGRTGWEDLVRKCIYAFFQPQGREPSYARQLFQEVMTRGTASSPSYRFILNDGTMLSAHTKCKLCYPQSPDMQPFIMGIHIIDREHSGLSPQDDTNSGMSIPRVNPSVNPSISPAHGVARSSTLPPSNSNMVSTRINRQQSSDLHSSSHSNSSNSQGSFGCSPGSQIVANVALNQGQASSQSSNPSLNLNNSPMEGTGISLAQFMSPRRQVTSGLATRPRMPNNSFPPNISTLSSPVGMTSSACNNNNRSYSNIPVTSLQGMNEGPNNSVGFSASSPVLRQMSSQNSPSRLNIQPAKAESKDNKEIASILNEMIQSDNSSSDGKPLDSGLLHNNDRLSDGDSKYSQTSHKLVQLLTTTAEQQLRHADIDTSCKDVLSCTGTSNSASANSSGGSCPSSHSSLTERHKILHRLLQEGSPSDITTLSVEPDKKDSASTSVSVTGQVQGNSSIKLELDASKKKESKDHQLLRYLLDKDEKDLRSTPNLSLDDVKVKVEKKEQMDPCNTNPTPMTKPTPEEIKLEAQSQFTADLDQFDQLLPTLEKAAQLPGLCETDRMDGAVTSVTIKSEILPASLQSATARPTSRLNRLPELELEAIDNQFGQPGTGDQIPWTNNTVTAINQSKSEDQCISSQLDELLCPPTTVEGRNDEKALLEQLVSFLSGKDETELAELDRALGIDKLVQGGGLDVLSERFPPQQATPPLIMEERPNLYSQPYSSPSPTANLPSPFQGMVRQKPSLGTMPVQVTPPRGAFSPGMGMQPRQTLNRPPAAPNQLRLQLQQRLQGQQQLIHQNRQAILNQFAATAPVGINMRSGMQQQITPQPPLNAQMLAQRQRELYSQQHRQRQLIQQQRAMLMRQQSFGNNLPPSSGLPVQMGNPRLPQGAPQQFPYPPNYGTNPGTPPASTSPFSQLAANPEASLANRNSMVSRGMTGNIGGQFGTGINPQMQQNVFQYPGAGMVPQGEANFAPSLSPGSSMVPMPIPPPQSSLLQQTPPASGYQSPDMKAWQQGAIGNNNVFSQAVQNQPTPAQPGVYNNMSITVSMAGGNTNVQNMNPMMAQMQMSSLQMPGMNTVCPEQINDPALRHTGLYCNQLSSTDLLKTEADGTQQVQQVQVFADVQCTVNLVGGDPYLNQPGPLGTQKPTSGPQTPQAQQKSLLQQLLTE

What was measured:
[1] = target: GST fused to amino acids 263-538 of human importin α5 (NPI-1) (human) (UniProt P52294); assay: GST pull-down of IVT 35S-EDD
[2] = target: GST-PR(CDE) fusion protein (human PR B aa 456-933) (human) (UniProt P06401); assay: figure title (GST-PR pull-downs)
[3] = target: T1, GST-CIB fusion protein (full-length CIB in pGEX2T) (human) (UniProt Q99828); assay: GST-CIB pull-down of IVT 35S-EDD
T1 sequence: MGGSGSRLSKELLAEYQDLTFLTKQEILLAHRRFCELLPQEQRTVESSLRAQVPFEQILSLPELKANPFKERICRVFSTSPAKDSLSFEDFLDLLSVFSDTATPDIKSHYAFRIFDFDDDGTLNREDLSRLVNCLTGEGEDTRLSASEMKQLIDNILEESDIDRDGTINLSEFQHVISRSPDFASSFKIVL

[4] = target: GST-PR(CDE) fusion protein (human PR B aa 456-933) (human) (UniProt P06401); assay: GST-PR(CDE) pull-down, EDD western blot
[5] = target: GST fused to amino acids 263-538 of human importin α5 (NPI-1) (human) (UniProt P52294); assay: GST pull-down from cell lysates, EDD western blot
[6] = target: GST-PR(CDE) fusion protein (human PR B aa 456-933) (human) (UniProt P06401); assay: GST-PR pull-down from T-47D extracts, EDD western blot
[7] = target: GSTchk2-N (GST fused to chk2 aa 1-225) (human) (UniProt O96017); assay: GSTchk2-N pull-down from MCF-7 cells, EDD western blot
[8] = target: T1, GST-CIB fusion protein (full-length CIB in pGEX2T) (human); assay: GST-CIB pull-down from MCF-7 nuclear extracts (discussion)
[9] = target: GSTchk2-N (GST fused to chk2 aa 1-225) (human) (UniProt O96017); assay: GSTchk2-N pull-down from HeLa nuclear extract, MS sequencing
[10] = target: GST fused to amino acids 263-538 of human importin α5 (NPI-1) (human) (UniProt P52294); assay: GST-importin α5 pull-down from cell extracts, EDD western blot
[11] = target: T1, GST-CIB fusion protein (full-length CIB in pGEX2T) (human); assay: GST-CIB pull-down from MCF-7 nuclear extracts, EDD western blot
[12] = target: GSTchk2-N (GST fused to chk2 aa 1-225) (human) (UniProt O96017); assay: GSTchk2-N pull-down from MCF-7 nuclear extracts, EDD western blot
[13] = target: GSTchk2-N (GST fused to chk2 aa 1-225) (human) (UniProt O96017); assay: GSTCHK2-N pull-down from MCF7 whole cell extracts, EDD western blot
[14] = target: GST fused to amino acids 263-538 of human importin α5 (NPI-1) (human) (UniProt P52294); assay: figure title (yeast two-hybrid, GST pull-down, co-immunoprecipitation)
[15] = target: GSTchk2-N (GST fused to chk2 aa 1-225) (human) (UniProt O96017); assay: GSTchk2-N pull-down from MCF-7 nuclear extracts with or without phleomycin
[16] = target: T1, GST-CIB fusion protein (full-length CIB in pGEX2T) (human); assay: GST-CIB pull-down from lysates of MCF-7 cells treated with DNA damaging agents
[17] = target: GSTchk2-N (GST fused to chk2 aa 1-225) (human) (UniProt O96017); assay: GSTCHK2-N pull-down of IVT 35S-EDDF6
[18] = target: GSTchk2-N (GST fused to chk2 aa 1-225) (human) (UniProt O96017); assay: GSTchk2-N pull-down of IVT 35S-EDD deletion mutants
[19] = target: GST-PR(CDE) fusion protein (human PR B aa 456-933) (human) (UniProt P06401); assay: GST-PR(CDE) pull-down of IVT 35S-SRC-1

Measured: binding

EDD protein, full length (aa 1-2799) (from UniProt O95071 1-2799)
not listed: [17] | [18] | [19]
binds: all other assays above

EDDF6 (EDD aa 889-2526; EDDF5 without the Hect domain) (from UniProt O95071 889-2526)
binds: [17] | [18]

SRC-1 (in vitro translated, from pCR3.1-SRC1A) (from UniProt Q15788 1-1441)
binds: [19]
